Literature values, collected in US20220202682A1, “INCREASING THE STABILITY OF AGENTS FOR THE TREATMENT OF KERATINOUS MATERIAL” (Henkel AG & Co. KGaA, priority 2019, published 2022).

Conditions: 25° C.

Compound: CCN(Cc1cccc(S(=O)(=O)[O-])c1)c1ccc(C(=C2C=CC(=[N+](CC)Cc3cccc(S(=O)(=O)[O-])c3)C=C2)c2ccccc2S(=O)(=O)[O-])cc1.[Na+].[Na+] [Acid Blue 9]
- solubility in water: more than 20 % by weight
